Measured values reported in paper PMC6988918.

B1: Carnitine O-palmitoyltransferase 2, mitochondrial (protein, UniProt P18886 26-658)
chain: SAVSGPDDYLQHSIVPTMHYQDSLPRLPIPKLEDTMKRYLNAQKPLLDDSQFRRTEALCKNFETGVGKELHAHLLAQDKQNKHTSYISGPWFDMYLTARDSIVLNFNPFMAFNPDPKSEYNDQLTRATNLTVSAVRFLKTLQAGLLEPEVFHLNPSKSDTDAFKRLIRFVPPSLSWYGAYLVNAYPLDMSQYFRLFNSTRIPRPNRDELFTDTKARHLLVLRKGHFYVFDVLDQDGNIVNPLEIQAHLKYILSDSSPVPEFPVAYLTSENRDVWAELRQKLIFDGNEETLKKVDSAVFCLCLDDFPMKDLIHLSHTMLHGDGTNRWFDKSFNLIVAEDGTAAVHFEHSWGDGVAVLRFFNEVFRDSTQTPAITPQSQPAATNSSASVETLSFNLSGALKAGITAAKEKFDTTVKTLSIDSIQFQRGGKEFLKKKQLSPDAVAQLAFQMAFLRQYGQTVATYESCSTAAFKHGRTETIRPASIFTKRCSEAFVRDPSKHSVGELQHMMAECSKYHGQLTKEAAMGQGFDRHLYALRYLATARGLNLPELYLDPAYQQMNHNILSTSTLNSPAVSLGGFAPVVPDGFGIAYAVHDDWIGCNVSSYSGRNAREFLHCVQKCLEDIFDALEGKAIKT
B2: Isocitrate dehydrogenase [NADP], mitochondrial (protein, UniProt P56574 40-452)
chain: AEKRIKVEKPVVEMDGDEMTRIIWQFIKEKLILPHVDVQLKYFDLGLPNRDQTNDQVTIDSALATQKYSVAVKCATITPDEARVEEFKLKKMWKSPNGTIRNILGGTVFREPIICKNIPRLVPGWTKPITIGRHAHGDQYKATDFVVDRAGMFKLVFTPKDGSGAKEWEVYNFPAGGVGMGMYNTDESISGFAHSCFQYSIQKKWPLYLSTKNTIMKAYDGRFKDIFQEIFDKHYKTDFDKNKIWYEHRLIDDMVAQVLKSSGGFVWACKNYDGDVQSDILAQGFGSLGLMTSVLVCPDGKTIEAEAAHGTVTRHYREHQKGRPTSTNPIASIFAWTRGLEHRGKLDGNQDLIRFAQTLEKVCVQTVESGAMTKDLAGCIHGLSNVKLNEHFLNTTDFLDTIKSNLDRALGKQ
B3: Citrate synthase, mitochondrial (protein, UniProt Q8VHF5 28-466)
chain: ASSTNLKDILSNLIPKEQARVKTFRQQHGKTVVGQITVDMMYGGMRGMKGLVYETSVLDPDEGIRFRGYSIPECQKLLPKAKGGEEPLPEGLFWLLVTGQMPTEEQVSWLSQEWAKRAALPSHVVTMLDNFPTNLHPMSQLSAAITALNSESNFARAYAEGINRTKYWELIYEDCMDLIAKLPCVAAKIYRNLYREGSSIGAIDSKLDWSHNFTNMLCYTEPQFTELMRLYLTIHSDHDGGNVSAHTSHLVGSALSDTYLSFAAAMNGLAGPLHGLANQEVLVWLTQLQKEVGKDVSDEKLRDYIWNTLNSGRVVPGYGHAVLRKTDPRYSCQREFALKHLPKDPMFKLVAQLYKIVPNILLEQGKAKNPWPNVDAHSGVLLQYYGMTEMNYYTVLFGVSRALGVLAQLIWSRALGFPLERPKSMSTDGLMKFVDSKSG
B4: Aconitate hydratase, mitochondrial (protein, UniProt Q9ER34 28-780)
chain: QRAKVAMSHFEPSEYIRYDLLEKNINIVRKRLNRPLTLSEKIVYGHLDDPANQEIERGKTYLRLRPDRVAMQDATAQMAMLQFISSGLPKVAVPSTIHCDHLIEAQLGGEKDLRRAKDINQEVYNFLATAGAKYGVGFWRPGSGIIHQIILENYAYPGVLLIGTDSHTPNGGGLGGICIGVGGADAVDVMAGIPWELKCPKVIGVKLTGTLSGWTSPKDVILKVAGILTVKGGTGAIVEYHGPGVDSISCTGMATICNMGAEIGATTSVFPYNHRMKKYLSKTGRADIANLAEEFKDHLVPDPGCQYDQVIEINLNELKPHINGPFTPDLAHPVADVGTVAEKEGWPLDIRVGLIGSCTNSSYEDMGRSAAVAKQALAHGLKCKSQFTITPGSEQIRATIERDGYAQILRDVGGIVLANACGPCIGQWDRKDIKKGEKNTIVTSYNRNFTGRNDANPETHAFVTSPEIVTALAIAGTLKFNPETDFLTGKDGKKFKLEAPDADELPRSDFDPGQDTYQHPPKDSSGQRVDVSPTSQRLQLLEPFDKWDGKDLEDLQILIKVKGKCTTDHISAAGPWLKFRGHLDNISNNLLIGAINIENGKANSVRNAVTQEFGPVPDTARYYKKHGIRWVVIGDENYGEGSSREHAALEPRHLGGRAIITKSFARIHETNLKKQGLLPLTFADPSDYNKIHPVDKLTIQGLKDFAPGKPLNCIIKHPNGTQETILLNHTFNETQIEWFRAGSALNRMKELQQ
B5: Ubiquitin specific protease 25 (Predicted) (protein, UniProt D4ACD3 1-1055)
chain: MTVEQNVLQQSAAQKHQQTFLNQLREITGINDAQILQQALKDSNGNLELAVAFLTAKNAKTPPQEETAYYQTAALPGSDRYISVGSQADANVIDLTGDDKDDLQRAIALSLAESNRTFRETGITDEEQAISRVLEASIAENKACLKRTPIEVWRDSRNPYDRKRQDKAPVGLKNVGNTCWFSAVIQSLFNLLEFRRLVLNYKPPSNAQDLPRNQKEHRNLPFMRELRYLFALLVGTKRKYVDPSRAVEILKDAFKSNDSQQQDVSEFTHKLLDWLEDAFQMKAEEETDEEKPKNPMVELFYGRFLAMGVLEGKKFENTEMFGQYPLQVNGFKDLHECLEAAMIEGEIESLHSDNSGKSGQEHWFTELPPVLTFELSRFEFNQALGRPEKIHNKLEFPQVLYLDRYMHRNREITRIKREEIKRLKDYLTVLQQRLERYLSYGSGPKRFPLVDVLQYALEFASSKPVCTSPVDDIDATSSTSGSTSSQSLPSTTEQQGTPASDLPSSSPASGAALSLRSVIHKPFTQSRIPPDLPMHPAPRHITEEELSVLESCLHRWRTEIENDTRDLQESISRIHRTIELMYSDKSMIQVPYRLHAVLVHEGQANAGHYWAYIFDHRESRWMKYNDIAVTKSSWEELVRDSFGGYRNASAYCLMYINDKAQFLIQEEFNKETGQALVGMETLPPDLRDFVEEDNQRFEKELEDWDTQLAQRALQEKLLAAQKLREAESSAPTAQAGGPDYLEQPSRSDLSKHWKEETLRVIAKASHDHEDKGPETVLQSAIKLEYSRLVKLAQEDTPPETDYRLHHVLVYFIQNQAPKKIIEKTLLEQFGDRNLSFDERCHNIMKVAQAKLEMIKPEEVNLEEYEEWHADYKKFRETTMYLIIGLENFQRESYIDSLLFLICAYQNNKELLSKGPYRGHDGDLISHYRRECLLKLNEQAAELFESGEDREVSNGLIIMNEFIVPFLPLLLVDETEERDILAVEDMRNRWCSYLGQDMEPNLQEKLTDFLPKLLDCSTEIKGFHEPPKLPSYSAHELCERFARIMLSLSRTPADGR
B6: Malate dehydrogenase, mitochondrial (protein, UniProt P04636 25-338)
chain: AKVAVLGASGGIGQPLSLLLKNSPLVSRLTLYDIAHTPGVAADLSHIETRANVKGYLGPEQLPDCLKGCDVVVIPAGVPRKPGMTRDDLFNTNATIVATLTAACAQHCPEAMICIISNPVNSTIPITAEVFKKHGVYNPNKIFGVTTLDIVRANTFVAELKGLDPARVNVPVIGGHAGKTIIPLISQCTPKVDFPQDQLATLTGRIQEAGTEVVKAKAGAGSATLSMAYAGARFVFSLVDAMNGKEGVIECSFVQSKETECTYFSTPLLLGKKGLEKNLGIGKITPFEEKMIAEAIPELKASIKKGEDFVKNMK

Target: Akt (protein kinase B) (rat (endogenous in rat cardiomyocytes))
Experiment: affinity purification with mass spectrometry; Akt precipitated with polyclonal Akt 1/2/3 antibody (sc-8312) and protein A-Sepharose from 1% NP-40 lysates of cardiomyocytes of control and MetS rats stimulated with 100 nM insulin for 10 min; label-free mass spectrometry of the immune complexes

| Binder | binding |
| --- | --- |
| B1 | binds |
| B2 | binds |
| B3 | binds |
| B4 | binds |
| B5 | binds |
| B6 | binds |

These are yes or no findings as the source states them, for the method shown. Binding seen in cells or lysates may run through a third protein. A yes stands for co-enrichment or nearness to the bait. Other partners may have been found.
